Out of some 52,000 sequences screened, about 210 (0.4%) were called active.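 Rule for the calls: active = gene whose silencing raises cell survival under the drug, median off-target-corrected z-score across its silencing RNAs 2 or more; inactive = the rest.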 The list shows a part of the results.

The assay in a line: Resistance to Poly (ADP-Ribose) Polymerase inhibitor: Gene Identification via Genome-wide siRNA Screen. To be noted: mouse BRCA2 R2336H ES cells, olaparib, CellTiter-Glo viability; active compounds read high. The essentials: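 Mouse BRCA2 R2336H ES cells were reverse-transfected with siRNA (20 nM final), treated at 48 h with 500 nM olaparib, and read by CellTiter-Glo after 72 h. Scores: MAD-based z per siRNA, median per gene, seed off-target correction.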
In general terms: ATP-based viability assays read luminescence as a measure of living cells.
In the case of CCCUAACAGCUGACGAUAATT against Tm7sf3, the z-score is inactive: -0.0034. The value for GGAUCAAGUUGCCUCCGUUTT against Olfr1097 was inactive: -1.82; that for GGAUCAUAGUGUCUUUCAGTT against Dnaja4 was inactive: -0.232. To GGGCACACUUCUCUUCAUUTT against Olfr152 belongs inactive: -0.838; to GGAAAGUGCAUCAUAGACATT against Thrb, inactive: -0.23; to CGAUCCUUCUGUCCUGGAUTT against Ever2, inactive: -1.45. The value for GGUUUUGAAGCUGAAAAUATT against Zfp60 was inactive: -0.599; that for CCAGUACAGAUGUGUUAAATT against BC037393 was inactive: -0.761. With “GCUAGGUAUACAGCCAAAGTT against 4633402N23Rik”, the z-score was inactive: 0.44. The value for GGACUUUGACAGCUUAGGATT against Acate3 was inactive: -0.561; that for CCUCUUCUGCGCGGAUUUGTT against Gpr120 was inactive: -1.36. To CCAAGGACAACCCUAUCAGTT against Cdsn belongs inactive: 0.668; to GGUGAACAUCUUCCAUUAUTT against Krtap3-2, inactive: -2.12; to CGUGUAGCAAUGAGAUAUUTT against Trpc5, inactive: -0.313. To GCCAAGACAUCAGAAGGAUTT against Nrxn1 belongs inactive: -0.685. With GGGCCUUACUCAAAUCCCUTT against Fbln5, the z-score was inactive: -0.267. Take “CGUUGGUCUUCACUGAUAATT against 6030440P17Rik”: the z-score is inactive: -1.88.

As for GCAACAAAUCAGAUUUGACTT against Dhdh, the z-score was inactive: -0.38. The value for GCUAUGAAAAGUGUCUGCCTT against Cul4b was inactive: -0.154. To UCUAGAAUGAGGGUCUUUUTT against Il19 belongs inactive: 0.327; to GCAGCUAAUUAAGUCAAGGTT against Barhl1, inactive: 1.19; to GGACCAUGAGACGAUGGGATT against Dysf, inactive: 1.67. In the case of GCCAAUGUGGAAUCAAAGGTT against Ms4a6c, the z-score was inactive: -0.248. The value for GGGAAAGGAAACAUGGAACTT against Apom was inactive: 1.27; that for CCAGUGCAGGACCUCAUUUTT against Sod1 was inactive: -0.971; that for GGUAUUUGGAAUCCAAUUGTT against Maged2 was inactive: 0.0194. On to “GGUUGAAUCAAGAGGAAAATT against 1300007B12Rik”, for which the z-score was inactive: 1.35. To CGAGAUUUGGAAUGCCCUGTT against Fez2 belongs inactive: -0.342; to GGUCAUAGAAGGGUUCAGCTT against Sbsn, inactive: 0.486; to GGUCUCAUUAUGACAGUGATT against Orc2l, inactive: -1.6.

“CCCAGAGAACUAGAAACGATT against 9430097D07Rik”: the z-score is inactive: 0.0949. To GGAUGACGUACGCUUCAAGTT against Ceecam1 belongs inactive: 1.77; to “GGUCUUUCCUAAUAAGCAGTT against F830208F22Rik”, inactive: -0.31; to GCAUUAGGUAUGGUCAAGATT against Ris2, inactive: -1.87. To “GGCAGCACCAUCGUCUAAUTT against 4930432E11Rik” belongs inactive: -1.43; to CGUAAUCUUCAUCUUAGUATT against Olfr614, inactive: 1.22; to “GGACCCAGCAGUCAAGAUATT against 9930038B18Rik”, inactive: 0.872. The value for GGAAGAAUUUCGUACUAUGTT against Papolb was inactive: -0.59. Regarding CCACCUUCCAUGGUCAGUATT against Xpo4, the z-score is inactive: -2.26. In the case of GCUACCCAUGAGCUUUCGATT against S100a3, the z-score is inactive: 0.451. To GGAUAAAACUAGAAAUGGGTT against Edem1 belongs inactive: 1.28; to GCACAAGGAAAUCUAUCUATT against Cenpj, inactive: -0.461.

With “GGUGCAUUUUGUCUAUGAUTT against 6330527O06Rik”, the z-score is inactive: -0.24. To “GCGCAAGGAGAUCAUAGUCTT against 4930564N15Rik” belongs inactive: -0.94; to GGACUGAGGAAGAAUUUAATT against Grp58, inactive: -0.954; to CCUCAUAGCCAGUCUUUUUTT against Pafah2, inactive: 0.408. To CCUUACAGGACAUAAAACATT against Tde2 belongs inactive: -2.09; to GGCUGUCAUGAUCAGUCAUTT against V1rc7, inactive: 0.621. To GGAAGAAUUGCUUUGCCUCTT against Krt1-24 belongs inactive: -1.84; to CCUAUGAAGGUGAAUGCUUTT against Fbxl4, inactive: 0.651; to CCCAGAGCCAGGUUCAAACTT against LOC446210, inactive: -2.03.

As to CCACUUUACAGUGUUGAUATT against Eaf1, the z-score was inactive: 0.23.

For the sequence GCUUGUGGAAGAACCUACUTT against Hoxc13, the z-score was inactive: -0.97. The value for CCACGCUACAUGCAAUGGCTT against Itpka was inactive: -0.105; that for GGUGCAAACUAAAAAUCUUTT against Enc1 was inactive: 1.19; that for GGAAGACGAAGACGACAUUTT against Ercc3 was inactive: 1.29. The value for GCUGUACGAGCAUACUGUGTT against Tnxb was inactive: 0.27. To CCGGUUUGGGAAAAAGAAATT against Olfr610 belongs inactive: -1.07; to GGCUUGUUUCUGUGAUGAATT against Zfp330, inactive: 0.853. Turning to GGAGAAUUAAAAUGUGAAGTT against Hsd17b4, the z-score is inactive: 0.807.

As to GCCACCAUUAUGGCUAUGGTT against Pcsk4, the z-score was inactive: 0.212. To “CCCUGCCCGGGUUUUUAUATT against 9430079M16Rik” belongs inactive: -0.727; to GCCCAGUUUGUCACAAAGCTT against Sorl1, inactive: -0.0208.

As for “GGGAUUCUUUUUGUGGAAATT against 6330414G21Rik”, the z-score is inactive: 0.165. The value for GCGCGAAUUCUACUUUGACTT against Kcnf1 was inactive: 1.86. To GCCGGGAGAAAUAAAUGGUTT against Mif belongs inactive: 0.12. The value for GGCUGAGAAUGCAAGAAUGTT against Krt1-2 was inactive: 0.48; that for CCCUUUGACUAACCCUCUCTT against Tfpt was inactive: -0.294; that for GGAGAGGAGAGAGGGAAAATT against Sox4 was inactive: 1.79. GGAAAUGUGUGAAAUAACCTT against Hip2: the z-score was inactive: 0.534. To CCGAUUGGCUCGAUACUAUTT against Rps13 belongs inactive: -3.32. To GGUCUAUCAGUCUAUCAGATT against Btbd1 belongs inactive: -0.353; to GGAGAUGACCAAGUACCACTT against Hdac1, inactive: 1.69; to CCUUGAGCAAAUCACACAUTT against Stk32b, inactive: -0.0667. The value for CCUUGUUGACCCAACCAAATT against Nr1h3 was inactive: 0.595; that for CCCUGGGACUGAAUUUGGUTT against Scnn1b was inactive: 0.684. Regarding GGGUGAUAAGCAGUUAUACTT against Wdr75, the z-score was inactive: -2.39. To GGUCAUCUACCAACUCAGATT against Ifi202b belongs inactive: -0.412; to “GGGCUACUCAAUGUCUUAUTT against E230012M21”, inactive: -1.31.

Turning to “GGAUGUUCUAAAGAAGAGATT against 3110010F15Rik”, the z-score was inactive: 0.146.

For the sequence GCAAUAGACAUUUAAAGCATT against Pdlim3, the z-score is inactive: 0.671. For GGACAAUCCGAACAUCAAATT against Sval1, the z-score is inactive: 1.51. For “GGAAUACAUCGAAAUCAACTT against 4930583C14Rik”, the z-score was inactive: 0.0124. As for GGUAAAAGACUAAAGAAGATT against Coch, the z-score was inactive: -1.61. To “GUCUUUGUUCAGGAGGUGATT against 2310047C17Rik” belongs inactive: 0.394; to GGAAAAAGCCUAACUAUGATT against Ccnl1, inactive: -0.157.

CCUAACCACUACCUUAUACTT against H2-DMa: the z-score was inactive: 0.1. The value for CGGGACAAGUCCAAAUUGUTT against Ear5 was inactive: 0.54. Consider GGCCAAUGAGAACAGCCUGTT against Ndst1, for which the z-score was inactive: -0.786. For GCUACAUCGUUCGAGCUAGTT against Cyc1, the z-score is inactive: 1.56.

As for GGACAUAAAAGUGUCUCGATT against Cldn13, the z-score is inactive: 0.763.

Take CCUUACGAGAAAAAAUUAGTT against Spats1: the z-score is inactive: 0.274. The value for GCUAUAUCUACGACAAGGATT against Crip2 was inactive: 0.969; that for GGACCAUUCGAAAAAUGCCTT against Cd5 was inactive: 0.914; that for “GGAAUUCUCCAGAAAGCUCTT against 6620401K05Rik” was inactive: -1.46. The value for CGACUAUCAGCAGCUGAAGTT against Igf1r was inactive: 0.986; that for GUGGUUUGCAUUUUUCUUUTT against Olfr134 was inactive: 0.187. To CGGACAACGUGGCUUUGUCTT against Pstpip1 belongs inactive: 0.0837. Regarding GGAUUACAGAAGCCCACACTT against BC025458, the z-score is inactive: 0.217. With CCACCGAAAUCCUUAUUUUTT against Ppargc1a, the z-score was inactive: 0.946. The value for GGUGUAGGCUGUCCAAUAATT against AW540478 was inactive: -1.58; that for GCCUAGUAGAACUCCCAGCTT against Txn2 was inactive: -0.7; that for CCAUUAUUUCUACUCUCCCTT against Rpn1 was inactive: 0.458.

CGGAGCAUGAGCCAGAUAUTT against Tssc1: the z-score was inactive: -0.267. Take CCUUCGUAGUCUUGAUGUGTT against Olfr1179: the z-score is inactive: -1.65.
